From the supplement of paper PMC6411743
± gives the standard deviation of the averaged measurements. The list shows a part of the results, in another mix than the full data. Most entries show no effect beyond the scatter of the controls.

Amino acid sequences for entries named in this document (tags omitted). A change or cut given only in a name is not applied to a line headed by its entry.
UniProt Q9BW27: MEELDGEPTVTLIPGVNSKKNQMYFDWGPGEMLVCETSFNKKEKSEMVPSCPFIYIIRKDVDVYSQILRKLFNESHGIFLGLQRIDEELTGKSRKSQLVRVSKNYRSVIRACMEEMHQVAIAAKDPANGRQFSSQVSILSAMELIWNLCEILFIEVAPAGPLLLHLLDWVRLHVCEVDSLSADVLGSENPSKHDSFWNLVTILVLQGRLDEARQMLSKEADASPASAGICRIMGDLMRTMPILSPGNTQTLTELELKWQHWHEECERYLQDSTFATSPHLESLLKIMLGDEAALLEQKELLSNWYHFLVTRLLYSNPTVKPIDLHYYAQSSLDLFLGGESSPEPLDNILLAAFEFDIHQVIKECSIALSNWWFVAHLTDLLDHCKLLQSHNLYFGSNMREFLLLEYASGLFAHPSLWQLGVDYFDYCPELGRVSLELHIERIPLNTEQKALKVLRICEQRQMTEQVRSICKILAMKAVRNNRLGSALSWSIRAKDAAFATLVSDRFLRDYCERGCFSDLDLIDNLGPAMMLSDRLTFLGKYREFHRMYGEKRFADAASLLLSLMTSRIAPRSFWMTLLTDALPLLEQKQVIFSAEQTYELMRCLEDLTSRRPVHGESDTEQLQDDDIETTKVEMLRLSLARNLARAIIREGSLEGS
UniProt Q9BTA9: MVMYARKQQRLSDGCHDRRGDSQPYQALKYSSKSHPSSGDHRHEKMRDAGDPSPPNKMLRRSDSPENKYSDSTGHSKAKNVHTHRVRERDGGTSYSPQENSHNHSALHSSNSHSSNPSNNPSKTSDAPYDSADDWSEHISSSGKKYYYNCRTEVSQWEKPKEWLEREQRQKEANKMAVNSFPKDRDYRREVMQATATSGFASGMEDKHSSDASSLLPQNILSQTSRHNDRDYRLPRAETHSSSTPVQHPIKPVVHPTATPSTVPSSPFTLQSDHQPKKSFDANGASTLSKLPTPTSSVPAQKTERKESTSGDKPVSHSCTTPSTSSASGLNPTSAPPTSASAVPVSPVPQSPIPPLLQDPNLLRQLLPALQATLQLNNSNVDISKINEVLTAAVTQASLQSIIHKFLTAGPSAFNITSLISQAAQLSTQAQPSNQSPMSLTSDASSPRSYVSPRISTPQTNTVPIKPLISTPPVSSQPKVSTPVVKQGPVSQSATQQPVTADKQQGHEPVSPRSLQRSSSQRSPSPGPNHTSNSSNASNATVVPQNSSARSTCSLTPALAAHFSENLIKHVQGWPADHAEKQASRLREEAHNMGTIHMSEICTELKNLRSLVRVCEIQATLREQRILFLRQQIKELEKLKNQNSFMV
UniProt Q9BQ15: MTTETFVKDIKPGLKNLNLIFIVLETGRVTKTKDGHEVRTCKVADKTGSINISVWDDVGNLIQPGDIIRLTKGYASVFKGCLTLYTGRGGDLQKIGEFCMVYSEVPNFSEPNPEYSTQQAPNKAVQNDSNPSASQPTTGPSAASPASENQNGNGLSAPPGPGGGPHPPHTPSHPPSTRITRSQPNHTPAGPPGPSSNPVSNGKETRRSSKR
UniProt Q9BQG0: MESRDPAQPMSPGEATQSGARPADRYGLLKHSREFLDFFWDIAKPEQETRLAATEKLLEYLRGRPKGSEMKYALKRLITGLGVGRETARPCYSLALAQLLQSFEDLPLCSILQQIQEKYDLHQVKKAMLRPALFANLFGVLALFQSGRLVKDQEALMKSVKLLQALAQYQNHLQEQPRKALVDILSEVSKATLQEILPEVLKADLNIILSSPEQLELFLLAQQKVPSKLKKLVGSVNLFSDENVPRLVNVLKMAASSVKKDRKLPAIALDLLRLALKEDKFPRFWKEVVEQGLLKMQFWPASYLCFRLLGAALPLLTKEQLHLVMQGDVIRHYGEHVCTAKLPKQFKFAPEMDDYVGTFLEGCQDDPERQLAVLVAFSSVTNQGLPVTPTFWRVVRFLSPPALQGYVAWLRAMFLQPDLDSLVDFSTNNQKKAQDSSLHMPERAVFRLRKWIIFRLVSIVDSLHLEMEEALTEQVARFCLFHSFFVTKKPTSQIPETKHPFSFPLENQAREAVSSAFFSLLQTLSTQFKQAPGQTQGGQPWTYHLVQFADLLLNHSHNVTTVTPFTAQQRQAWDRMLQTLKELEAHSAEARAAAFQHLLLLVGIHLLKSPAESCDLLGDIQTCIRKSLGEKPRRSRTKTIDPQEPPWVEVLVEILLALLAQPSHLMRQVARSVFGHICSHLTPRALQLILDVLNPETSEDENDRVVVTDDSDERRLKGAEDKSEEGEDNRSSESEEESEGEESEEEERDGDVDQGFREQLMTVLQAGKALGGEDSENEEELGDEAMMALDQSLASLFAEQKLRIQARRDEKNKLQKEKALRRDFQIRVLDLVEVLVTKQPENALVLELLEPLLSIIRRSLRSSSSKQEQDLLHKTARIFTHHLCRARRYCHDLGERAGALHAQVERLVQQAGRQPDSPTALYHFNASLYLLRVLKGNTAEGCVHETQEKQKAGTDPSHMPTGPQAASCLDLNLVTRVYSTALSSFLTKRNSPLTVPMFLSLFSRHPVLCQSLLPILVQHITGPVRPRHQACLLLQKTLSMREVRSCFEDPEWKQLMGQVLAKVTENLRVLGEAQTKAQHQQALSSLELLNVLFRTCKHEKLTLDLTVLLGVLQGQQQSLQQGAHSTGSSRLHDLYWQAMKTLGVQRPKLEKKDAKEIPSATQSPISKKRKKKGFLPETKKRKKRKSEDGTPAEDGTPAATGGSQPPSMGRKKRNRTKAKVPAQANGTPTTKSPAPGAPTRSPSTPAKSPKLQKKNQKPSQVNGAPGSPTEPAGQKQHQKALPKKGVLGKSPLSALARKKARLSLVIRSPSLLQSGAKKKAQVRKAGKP
UniProt Q99496: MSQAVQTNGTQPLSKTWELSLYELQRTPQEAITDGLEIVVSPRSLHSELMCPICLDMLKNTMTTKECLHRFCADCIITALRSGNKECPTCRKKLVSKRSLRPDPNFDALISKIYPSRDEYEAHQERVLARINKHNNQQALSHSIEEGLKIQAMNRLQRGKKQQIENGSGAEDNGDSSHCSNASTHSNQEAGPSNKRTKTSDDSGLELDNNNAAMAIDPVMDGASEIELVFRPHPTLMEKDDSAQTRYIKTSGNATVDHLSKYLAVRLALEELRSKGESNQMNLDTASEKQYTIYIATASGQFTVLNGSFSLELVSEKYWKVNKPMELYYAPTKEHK
UniProt Q9BRZ2: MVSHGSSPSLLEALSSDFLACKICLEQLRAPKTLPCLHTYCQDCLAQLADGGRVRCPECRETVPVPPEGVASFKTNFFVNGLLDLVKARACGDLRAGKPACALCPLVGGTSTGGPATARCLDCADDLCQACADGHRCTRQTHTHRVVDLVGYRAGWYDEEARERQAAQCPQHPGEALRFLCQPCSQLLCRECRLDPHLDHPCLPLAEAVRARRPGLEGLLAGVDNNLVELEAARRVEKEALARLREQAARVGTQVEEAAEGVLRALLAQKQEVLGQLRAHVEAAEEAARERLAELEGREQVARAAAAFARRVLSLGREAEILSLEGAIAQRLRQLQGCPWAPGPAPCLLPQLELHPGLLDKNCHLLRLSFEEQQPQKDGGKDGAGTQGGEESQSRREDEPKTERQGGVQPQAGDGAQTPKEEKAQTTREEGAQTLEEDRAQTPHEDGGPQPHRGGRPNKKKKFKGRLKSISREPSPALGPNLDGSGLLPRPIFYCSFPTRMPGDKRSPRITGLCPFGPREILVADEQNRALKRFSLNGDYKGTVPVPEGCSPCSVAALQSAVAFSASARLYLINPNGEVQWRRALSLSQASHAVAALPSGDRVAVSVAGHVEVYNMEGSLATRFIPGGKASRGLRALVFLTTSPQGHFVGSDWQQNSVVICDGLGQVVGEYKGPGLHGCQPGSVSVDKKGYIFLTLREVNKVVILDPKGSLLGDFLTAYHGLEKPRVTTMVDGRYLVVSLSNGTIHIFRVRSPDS
UniProt Q96T51: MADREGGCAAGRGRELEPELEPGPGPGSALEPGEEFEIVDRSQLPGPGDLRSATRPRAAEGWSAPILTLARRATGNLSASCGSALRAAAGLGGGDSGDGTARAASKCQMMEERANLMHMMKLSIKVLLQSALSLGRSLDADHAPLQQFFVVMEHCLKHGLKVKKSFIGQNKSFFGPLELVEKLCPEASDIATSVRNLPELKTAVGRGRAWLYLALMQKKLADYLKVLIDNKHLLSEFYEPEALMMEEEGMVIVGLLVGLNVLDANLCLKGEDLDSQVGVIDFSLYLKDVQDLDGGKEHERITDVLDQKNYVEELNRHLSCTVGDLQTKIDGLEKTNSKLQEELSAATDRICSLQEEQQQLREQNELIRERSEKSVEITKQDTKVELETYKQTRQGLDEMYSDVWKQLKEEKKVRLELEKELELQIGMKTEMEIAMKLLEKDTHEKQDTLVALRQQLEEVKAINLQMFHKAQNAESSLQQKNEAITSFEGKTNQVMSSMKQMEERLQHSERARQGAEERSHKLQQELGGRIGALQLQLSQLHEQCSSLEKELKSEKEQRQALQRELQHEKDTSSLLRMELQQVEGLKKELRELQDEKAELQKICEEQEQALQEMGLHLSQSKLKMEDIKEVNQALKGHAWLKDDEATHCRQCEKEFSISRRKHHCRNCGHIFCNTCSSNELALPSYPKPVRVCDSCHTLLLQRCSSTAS
UniProt Q9BWF3: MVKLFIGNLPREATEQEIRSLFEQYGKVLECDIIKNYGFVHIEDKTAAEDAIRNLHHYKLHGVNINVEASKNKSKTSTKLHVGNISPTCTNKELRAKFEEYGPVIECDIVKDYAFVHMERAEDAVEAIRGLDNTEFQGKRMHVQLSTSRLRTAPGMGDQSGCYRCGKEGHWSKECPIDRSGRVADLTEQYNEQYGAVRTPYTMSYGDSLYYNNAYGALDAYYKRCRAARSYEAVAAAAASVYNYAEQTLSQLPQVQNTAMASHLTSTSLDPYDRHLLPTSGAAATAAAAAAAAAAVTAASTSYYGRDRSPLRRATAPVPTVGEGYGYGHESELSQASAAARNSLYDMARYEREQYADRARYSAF
UniProt Q9BQS8: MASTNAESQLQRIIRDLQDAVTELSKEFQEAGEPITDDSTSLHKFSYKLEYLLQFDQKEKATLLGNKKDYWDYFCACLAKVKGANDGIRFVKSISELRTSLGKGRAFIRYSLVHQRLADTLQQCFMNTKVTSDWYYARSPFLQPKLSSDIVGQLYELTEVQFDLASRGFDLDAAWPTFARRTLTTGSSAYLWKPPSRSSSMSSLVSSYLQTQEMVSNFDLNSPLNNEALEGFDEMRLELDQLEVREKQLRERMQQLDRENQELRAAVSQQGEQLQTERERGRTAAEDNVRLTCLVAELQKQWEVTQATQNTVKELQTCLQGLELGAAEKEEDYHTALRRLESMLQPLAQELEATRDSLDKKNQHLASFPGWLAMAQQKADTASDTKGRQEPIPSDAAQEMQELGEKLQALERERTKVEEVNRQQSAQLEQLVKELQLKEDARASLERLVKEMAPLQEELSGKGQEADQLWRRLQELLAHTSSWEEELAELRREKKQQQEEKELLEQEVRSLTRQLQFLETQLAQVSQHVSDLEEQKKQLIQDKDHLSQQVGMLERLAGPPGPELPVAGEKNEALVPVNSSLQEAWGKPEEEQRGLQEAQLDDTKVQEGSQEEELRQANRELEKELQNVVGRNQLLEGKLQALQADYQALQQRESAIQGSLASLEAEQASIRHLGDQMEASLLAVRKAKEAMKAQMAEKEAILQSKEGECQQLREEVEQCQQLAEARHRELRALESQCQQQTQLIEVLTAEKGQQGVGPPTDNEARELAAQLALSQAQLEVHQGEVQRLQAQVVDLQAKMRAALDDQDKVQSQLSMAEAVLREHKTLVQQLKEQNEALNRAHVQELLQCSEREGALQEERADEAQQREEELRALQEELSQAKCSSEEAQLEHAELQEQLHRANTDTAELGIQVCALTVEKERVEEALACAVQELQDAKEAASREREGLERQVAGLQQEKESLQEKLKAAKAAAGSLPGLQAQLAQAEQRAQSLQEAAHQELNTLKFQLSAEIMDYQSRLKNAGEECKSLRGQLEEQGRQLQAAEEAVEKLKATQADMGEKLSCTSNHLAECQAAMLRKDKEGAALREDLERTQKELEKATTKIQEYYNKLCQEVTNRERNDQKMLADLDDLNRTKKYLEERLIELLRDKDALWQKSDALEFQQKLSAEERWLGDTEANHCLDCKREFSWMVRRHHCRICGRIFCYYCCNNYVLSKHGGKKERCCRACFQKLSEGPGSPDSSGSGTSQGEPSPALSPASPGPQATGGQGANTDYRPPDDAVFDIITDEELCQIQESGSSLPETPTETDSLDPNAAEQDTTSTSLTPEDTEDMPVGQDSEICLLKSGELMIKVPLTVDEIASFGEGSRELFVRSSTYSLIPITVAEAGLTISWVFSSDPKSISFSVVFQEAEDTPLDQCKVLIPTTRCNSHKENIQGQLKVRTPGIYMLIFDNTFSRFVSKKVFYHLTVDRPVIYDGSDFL

The targets below were run with Nc1ncnc2c1ncn2[C@@H]1O[C@H](COP(=O)(O)OP(=O)(O)NP(=O)(O)O)[C@@H](O)[C@H]1O [adenylyl imidodiphosphate] (assay: NP40-soluble protein abundance relative to vehicle (solubility fold change) (ratio); higher = more soluble protein in presence of AMP-PNP). Conditions: concentration: 0.5mM.
Procedure, shortened: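 Data come from three independent experiments in which Dounce-homogenised Jurkat crude lysate was treated at eight concentrations from 0.1 to 10 mM. Treatment ran 10 min at room temperature and then 3 min at 37 °C, after which 0.8% NP40 and benzonase were added for 60 min at 4 °C before ultracentrifugation. The supernatant underwent TMT labelling and LC-MS/MS, and vsn-normalised intensities were expressed as fold change against the detergent-processed vehicle in each replicate.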

| Target | NP40-soluble protein abundance |
| --- | --- |
| MRI1 (UniProt Q9BV20) | 0.975 ± 0.011 |
| PLEKHF1 (UniProt Q96S99) | 0.968 ± 0.027 |
| ITPA (UniProt Q9BY32) | 1.04 ± 0.081 |
| UniProt Q9BTX1 and related entries | 1.01 ± 0.049 |
| NUP85 (UniProt Q9BW27) | 0.993 ± 0.072 |
| UniProt Q9BVC5 and related entries | 0.903 ± 0.024 |
| UniProt Q9BTA9 and related entries | 1.03 ± 0.044 |
| NABP2 (UniProt Q9BQ15) | 0.98 ± 0.047 |
| VAT1 (UniProt Q99536) | 0.999 ± 0.021 |
| UniProt Q9BQG0 and related entries | 1.02 ± 0.029 |
| RNF2 (UniProt Q99496) | 1.04 ± 0.038 |
| TRIM56 (UniProt Q9BRZ2) | 0.977 ± 0.036 |
| UniProt Q96RU2-2 | 0.989 ± 0.02 |
| UniProt Q96T51 and related entries | 0.98 ± 0.054 |
| MRPL9 (UniProt Q9BYD2) | 1.05 ± 0.042 |
| UniProt Q9BWF3 and related entries | 1.03 ± 0.076 |
| CDC5L (UniProt Q99459) | 1.03 ± 0.02 |
| UniProt Q9BQS8 and related entries | 0.994 ± 0.043 |
| UniProt Q9BTC8 and related entries | 1.02 ± 0.023 |
| WDR77 (UniProt Q9BQA1) | 1 ± 0.012 |

Rewritten with bars between the fields: part of the list above
Target | NP40-soluble protein abundance
MRI1 (UniProt Q9BV20) | 0.975 ± 0.011
PLEKHF1 (UniProt Q96S99) | 0.968 ± 0.027
